Laboratory results: the supplement of paper PMC8728848
Some of the results follow.

Assays:
Experiment in all cases: glycan array binding signal (z-score within array); higher = stronger binding
Conditions in all cases: glycan notation: IUPAC condensed, linker removed
[1] = molecular target: Neu5Ac(a2-3)Gal(b1-4)GlcNAc(b1-6)GalNAc
In short: (§1)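 Arrays were curated from the Consortium for Functional Glycomics database, 3228 in total, and kept only where the protein sequence was available. Binding is expressed as a within-array Z-score. This score was averaged across arrays of the same protein sequence at different concentrations or buffers and across linkers, and negative values can be read as non-binding.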

[2] = molecular target: Neu5Ac(a2-3)Gal(b1-4)GlcNAc(b1-6)[Gal(b1-3)]GalNAc
In short: as §1

[3] = molecular target: Neu5Ac(a2-3)Gal(b1-4)GlcNAc(b1-6)[Neu5Ac(a2-3)Gal(b1-3)]GalNAc
In short: as §1

[4] = molecular target: Neu5Ac(a2-3)Gal(b1-4)GlcNAc6S
In short: as §1

[5] = molecular target: Neu5Ac(a2-3)Gal(b1-4)[Fuc(a1-3)]GlcNAc
In short: as §1

[6] = molecular target: Neu5Ac(a2-3)Gal(b1-4)[Fuc(a1-3)]GlcNAc(b1-2)Man
In short: as §1

[7] = molecular target: Neu5Ac(a2-3)Gal(b1-4)[Fuc(a1-3)]GlcNAc(b1-3)Gal
In short: as §1

[8] = molecular target: Neu5Ac(a2-3)Gal(b1-4)[Fuc(a1-3)]GlcNAc(b1-3)Gal(b1-4)GlcNAc
In short: as §1

[9] = molecular target: Neu5Ac(a2-3)Gal(b1-4)[Fuc(a1-3)]GlcNAc(b1-3)Gal(b1-4)[Fuc(a1-3)]GlcNAc(b1-3)Gal(b1-4)[Fuc(a1-3)]GlcNAc
In short: as §1

[10] = molecular target: Neu5Ac(a2-3)Gal(b1-4)[Fuc(a1-3)]GlcNAc(b1-3)GalNAc
In short: as §1

[11] = molecular target: Neu5Ac(a2-3)Gal(b1-4)[Fuc(a1-3)]GlcNAc(b1-6)[Gal(b1-3)]GalNAc
In short: as §1

[12] = molecular target: Neu5Ac(a2-3)Gal(b1-4)[Fuc(a1-3)]GlcNAc(b1-6)[Neu5Ac(a2-3)Gal(b1-3)]GalNAc
In short: as §1

[13] = molecular target: Neu5Ac(a2-3)Gal(b1-4)[Fuc(a1-3)]GlcNAc6S
In short: as §1

[14] = molecular target: Neu5Ac(a2-3)Gal6S(b1-4)GlcNAc
In short: as §1

[15] = molecular target: Neu5Ac(a2-3)Gal6S(b1-4)[Fuc(a1-3)]GlcNAc
In short: as §1

[16] = molecular target: Neu5Ac(a2-3)GalNAc
In short: as §1

[17] = molecular target: Neu5Ac(a2-3)GalNAc(b1-4)GlcNAc
In short: as §1

[18] = molecular target: Neu5Ac(a2-3)[GalNAc(b1-4)]Gal(b1-4)Glc
In short: as §1

[19] = molecular target: Neu5Ac(a2-3)[GalNAc(b1-4)]Gal(b1-4)GlcNAc
In short: as §1

[20] = molecular target: Neu5Ac(a2-3)[GalNAc(b1-4)]Gal(b1-4)GlcNAc(b1-3)GalNAc
In short: as §1

[21] = molecular target: Neu5Ac(a2-3)[Neu5Ac(a2-6)]GalNAc
In short: as §1

[22] = molecular target: Neu5Ac(a2-6)Gal
In short: as §1

[23] = molecular target: Neu5Ac(a2-6)Gal(b1-3)GlcNAc(b1-3)[Gal(b1-4)GlcNAc(b1-6)]Gal(b1-4)Glc
In short: as §1

[24] = molecular target: Neu5Ac(a2-6)Gal(b1-4)Glc
In short: as §1

[25] = molecular target: Neu5Ac(a2-6)Gal(b1-4)GlcNAc
In short: as §1

[26] = molecular target: Neu5Ac(a2-6)Gal(b1-4)GlcNAc(b1-2)Man
In short: as §1

[27] = molecular target: Neu5Ac(a2-6)Gal(b1-4)GlcNAc(b1-2)Man(a1-3)Man(b1-4)GlcNAc(b1-4)GlcNAc
In short: as §1

[28] = molecular target: Neu5Ac(a2-6)Gal(b1-4)GlcNAc(b1-2)Man(a1-3)[Gal(b1-4)GlcNAc(b1-2)Man(a1-6)]Man(b1-4)GlcNAc(b1-4)GlcNAc
In short: as §1

[29] = molecular target: Neu5Ac(a2-6)Gal(b1-4)GlcNAc(b1-2)Man(a1-3)[GlcNAc(b1-4)][Neu5Ac(a2-6)Gal(b1-4)GlcNAc(b1-2)Man(a1-6)]Man(b1-4)GlcNAc(b1-4)GlcNAc
In short: as §1

[30] = molecular target: Neu5Ac(a2-6)Gal(b1-4)GlcNAc(b1-2)Man(a1-3)[Man(a1-6)]Man(b1-4)GlcNAc(b1-4)GlcNAc
In short: as §1

B1: Pwp1 (Candida glabrata) (protein)
chain: MGSSHHHHHHSSGLVPRGSHMASANPISITNVCQFPDNWARTAGFQATTVRLGLTIASNTYKELLNYPGLFNFATQKATVTQPNFSISGFPFFTGLYGLTVWPINLLVELQGYFVPPESGNYTFTLQGSDDAAILFFANPSTFACGSQNDWPQPREADITVTDTLVPSRTLYLVKGVAYPIRIAYYNGSGDGKLNVSFKDPSGTTHTDWKGYVWQYSNTCSTCTYT
- glycan array binding signal (z-score) [1]: 0.128
- glycan array binding signal (z-score) [2]: 0.893
- glycan array binding signal (z-score) [3]: -0.22
- glycan array binding signal (z-score) [4]: -0.477
- glycan array binding signal (z-score) [5]: 0.918
- glycan array binding signal (z-score) [6]: -1.41
- glycan array binding signal (z-score) [7]: 0.574
- glycan array binding signal (z-score) [8]: -2.11
- glycan array binding signal (z-score) [9]: 0.456
- glycan array binding signal (z-score) [10]: -0.259
- glycan array binding signal (z-score) [11]: -0.909
- glycan array binding signal (z-score) [12]: -1.79
- glycan array binding signal (z-score) [13]: -1.03
- glycan array binding signal (z-score) [14]: -1.03
- glycan array binding signal (z-score) [15]: 0.436
- glycan array binding signal (z-score) [16]: 0.683
- glycan array binding signal (z-score) [17]: 0.042
- glycan array binding signal (z-score) [18]: 0.779
- glycan array binding signal (z-score) [19]: 0.864
- glycan array binding signal (z-score) [20]: 0.767
- glycan array binding signal (z-score) [21]: -0.913
- glycan array binding signal (z-score) [22]: -0.133
- glycan array binding signal (z-score) [23]: 0.548
- glycan array binding signal (z-score) [24]: -0.253
- glycan array binding signal (z-score) [25]: 0.954
- glycan array binding signal (z-score) [26]: 0.859
- glycan array binding signal (z-score) [27]: -1.55
- glycan array binding signal (z-score) [28]: 0.44
- glycan array binding signal (z-score) [29]: -0.52
- glycan array binding signal (z-score) [30]: -0.785
